Assay results taken from PMC2656614.
No constants are given. Whether binding was seen depends on the method and setting. Binding seen in cells or lysates may run through a third protein. Some binding calls cover weakened binding; strength is not graded here. Sequences can lack the tags named with a protein.

Amino acid sequences for entries named in this document (tags omitted).
UniProt P10085: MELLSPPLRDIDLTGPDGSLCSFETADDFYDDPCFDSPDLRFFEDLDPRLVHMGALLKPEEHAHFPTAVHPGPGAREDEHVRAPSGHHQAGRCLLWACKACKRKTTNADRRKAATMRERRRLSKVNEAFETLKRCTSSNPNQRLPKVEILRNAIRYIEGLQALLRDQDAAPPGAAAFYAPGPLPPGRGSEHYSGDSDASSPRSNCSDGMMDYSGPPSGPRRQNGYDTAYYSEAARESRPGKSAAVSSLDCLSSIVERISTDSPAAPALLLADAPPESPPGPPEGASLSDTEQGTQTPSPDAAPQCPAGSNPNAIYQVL

T1: Flag-tagged MAFbx (Atrogin-1/Muscle Atrophy F-box) (UniProt Q969P5)
T1 sequence: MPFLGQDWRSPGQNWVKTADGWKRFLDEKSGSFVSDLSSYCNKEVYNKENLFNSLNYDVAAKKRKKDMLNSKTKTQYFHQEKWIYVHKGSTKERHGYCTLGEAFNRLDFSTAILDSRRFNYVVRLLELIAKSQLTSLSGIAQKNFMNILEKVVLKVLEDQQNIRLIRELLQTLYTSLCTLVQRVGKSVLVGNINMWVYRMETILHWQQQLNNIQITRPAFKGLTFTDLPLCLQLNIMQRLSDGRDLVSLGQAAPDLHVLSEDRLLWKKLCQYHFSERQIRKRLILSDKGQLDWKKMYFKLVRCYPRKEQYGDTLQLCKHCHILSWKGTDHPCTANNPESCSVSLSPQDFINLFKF


Molecular target: T1, Flag-tagged MAFbx (Atrogin-1/Muscle Atrophy F-box)
Assay: co-IP; 10T1/2 cells co-transfected with an HA-tagged MRF and Flag-MAFbx, harvested 24 hr after transfection; 400 µg of total proteins immunoprecipitated with anti-Flag antibodies, Western blotting with anti-HA

| binding | Molecule |
| --- | --- |
| binds | HA-tagged MyoD (from UniProt P10085 1-318) |
| no binding | HA-tagged MRF4 (protein, UniProt P15375 1-242) MMMDLFETGSYFFYLDGENVTLQPLEVAEGSPLYPGSDGTLSPCQDQMPQEAGSDSSGEEHVLAPPGLQPPHCPGQCLIWACKTCKRKSAPTDRRKAATLRERRRLKKINEAFEALKRRTVANPNQRLPKVEILRSAISYIERLQDLLHRLDQQEKMQELGVDPYSYKPKQEILEGADFLRTCSPQWPSVSDHSRGLVITAKEGGANVDASASSSLQRLSSIVDSISSEERKLPSVEEVVEK |
| no binding | HA-tagged myogenin (protein, UniProt P12979 1-224) MELYETSPYFYQEPHFYDGENYLPVHLQGFEPPGYERTELSLSPEARGPLEEKGLGTPEHCPGQCLPWACKVCKRKSVSVDRRRAATLREKRRLKKVNEAFEALKRSTLLNPNQRLPKVEILRSAIQYIERLQALLSSLNQEERDLRYRGGGGPQPMVPSECNSHSASCSPEWGNALEFGPNPGDHLLAADPTDAHNLHSLTSIVDSITVEDMSVAFPDETMPN |
